Source: PubChem BioAssay AID1259254 (NCATS, 2017)

Screen: 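Finding genes that stop cells copying their DNA twice in one cycle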 (primary screen)
System: human HCT116 colorectal cancer cells
Reagents: single siRNA against human genes
Timing: 3 days
Read-out: 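Imaged Hoechst DNA stain sorts each cell into a cycle phase by DNA amount; per plate, G2 fraction set to 0% for non-targeting and 100% for GMNN siRNA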
Direction: G2 robust z-score: higher = more G2 cells, more excess DNA replication
Rule for the call: 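An siRNA counts as active if its G2 robust z-score lies at least 5 MADs above the screen median; here such calls match roughly 38% of GMNN control or more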
Here is one part, drawn at random, of about 59,000 reagents tested. About 1,550 of them (2.6%) count as active. 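G2 share is only a proxy for re-replication; each gene was hit by three separate siRNAs, and active genes were retested.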 Not all columns of the deposit are shown. Not given: the amount of reagent.

For RASGRP3 (GeneID 25780) [SID160736960], what does the deposit list?
G2 robust z-score: 0.128; Outcome: inactive

What did the screen give for RASGRP3 (GeneID 25780) [SID160736961]?
G2 robust z-score: -0.266; Outcome: inactive

What is on record for RASGRP3 (GeneID 25780) [SID160736962]?
G2 robust z-score: 0.681; Outcome: inactive

How did the screen score GPR45 (GeneID 11250) [SID160730285]?
G2 robust z-score: 3.08; Outcome: inactive

What did the screen give for GPR45 (GeneID 11250) [SID160730286]?
G2 robust z-score: -0.0747; Outcome: inactive

For GPR45 (GeneID 11250) [SID160730288], what does the deposit list?
G2 robust z-score: -0.0531; Outcome: inactive

How did the screen score TMEM245 (GeneID 23731) [SID160732777]?
G2 robust z-score: 1.34; Outcome: inactive

What is on record for TMEM245 (GeneID 23731) [SID160736819]?
G2 robust z-score: -0.339; Outcome: inactive

For TMEM245 (GeneID 23731) [SID160736820], how do the results read?
G2 robust z-score: 0.112; Outcome: inactive

Part of the list above, set out differently:
target gene,PubChem SID,G2 robust z-score,Outcome
RASGRP3 (GeneID 25780),SID160736960,0.128,inactive
RASGRP3 (GeneID 25780),SID160736961,-0.266,inactive

Further records:
For IL6R (GeneID 3570) [SID160775724], what does the deposit list?
G2 robust z-score: 0.171; Outcome: inactive

With IL6R (GeneID 3570) [SID160775725], how do the results read?
G2 robust z-score: -0.887; Outcome: inactive

Which result is listed for IL6R (GeneID 3570) [SID160775726]?
G2 robust z-score: 1.76; Outcome: inactive

How did the screen score CACNA1S (GeneID 779) [SID160735361]?
G2 robust z-score: 1.04; Outcome: inactive

For CACNA1S (GeneID 779) [SID160735371], how do the results read?
G2 robust z-score: -0.251; Outcome: inactive

With CACNA1S (GeneID 779) [SID160735382], how do the results read?
G2 robust z-score: 1.19; Outcome: inactive

What did the screen give for CAPN11 (GeneID 11131) [SID160730013]?
G2 robust z-score: -0.326; Outcome: inactive

For CAPN11 (GeneID 11131) [SID160730014], what was measured?
G2 robust z-score: 1.96; Outcome: inactive

How did the screen score CAPN11 (GeneID 11131) [SID160730509]?
G2 robust z-score: 0.0705; Outcome: inactive
